Test results: PubChem BioAssay AID248 (DTP/NCI, 2004)
The list shows only some results of the screen, not a fair sample: it is rich in T/C values a quarter to a half above the control, in often repeated tests (any T/C) and in doses without a T/C. Further doses and runs are listed elsewhere. T/C gives the treated animals as a percentage of the vehicle group. Some doses have a count of surviving animals in place of a T/C: the source holds a T/C of zero for them, seemingly a mark for toxic or unscored doses. Some survivor counts are full or nearly so, which does not show that the dose was tolerated: the source hardly ever lists a survival T/C far under the control, and the zero likely stands for such cases as well. Survivors were counted at the toxicity check, usually on the fifth day, unless a day is given; later deaths do not show. Schedules are NCI's codes, read here as Q, the interval in days (D) or hours (H), X, the number of doses. Some schedules carry Z or #; the key to these is not given. Some doses were run more than once; the results are listed from low to high. Some molecules as drawn cover several salts, stereoisomers or complexes of the source; a dose is that of the sample tested. For survival time, the PubChem record calls one and a half times the control and up active, and a quarter to a half above the control has no call in these data; cut-offs in other NCI protocols can differ. Some T/C values carry the count of animals alive at the toxicity check (mostly the fifth day); where none is given, no animal had died by that day.

System: L1210 leukemia ip in BDF1 mice, survival T/C
Assay: NCI In Vivo Anticancer Drug Screen. Data for tumor model L1210 Leukemia (intraperitoneal) in B6D2F1 (BDF1) mice
Conditions: T/C endpoint: mean survival time, higher T/C = longer survival; for T/C: vehicle: carboxymethylcellulose (CMC)
[1] = dose: 200.0 mg/kg/injection, schedule: Q01DX009 (ip), vehicle: Klucel (hydroxypropylcellulose) (HPC)
[2] = dose: 200.0 mg/kg/injection, schedule: Q01DX001 (ip), vehicle: saline
[3] = dose: 400.0 mg/kg/injection, schedule: Q01DX001 (ip), vehicle: saline
[4] = dose: 400.0 mg/kg/injection, schedule: Q04DX003 (ip), vehicle: saline with Tween-80
[5] = dose: 300.0 mg/kg/injection, schedule: Q01DX001 (ip), vehicle: saline
[6] = dose: 150.0 mg/kg/injection, schedule: Q01DX001 (ip), vehicle: saline
[7] = dose: 400.0 mg/kg/injection, schedule: Q01DX009 (ip), vehicle: saline with Tween-80

Question: With `O=NN(CCCl)C(=O)Nc1ccc2c(c1)-c1ccccc1C2` as the compound, how does the T/C (dose: 177.0 mg/kg/injection, schedule: Q01DX001 (ip), evaluated on day 30) read?
Answer: 128 % of control

Question: And the T/C (dose: 177.0 mg/kg/injection, schedule: Q01DX001 (ip), run until all animals had died)?
Answer: 138 and 145 % of control

Question: What about the T/C (dose: 177.0 mg/kg/injection, schedule: Q01DX009 (ip)) of the same compound?
Answer: 149 % of control

Question: What about the T/C (dose: 266.0 mg/kg/injection, schedule: Q01DX001 (ip), evaluated on day 30) of the same compound?
Answer: 131 % of control

Question: And the T/C (dose: 266.0 mg/kg/injection, schedule: Q01DX001 (ip), run until all animals had died)?
Answer: 125 and 134 % of control

Question: And the T/C (dose: 266.0 mg/kg/injection, schedule: Q01DX009 (ip))?
Answer: 133 % of control

Question: And the T/C (dose: 400.0 mg/kg/injection, schedule: Q01DX001 (ip))?
Answer: 129 % of control

Question: And the T/C (dose: 600.0 mg/kg/injection, schedule: Q01DX001 (ip))?
Answer: 134 % of control

Question: Which survivor count (dose: 30.0 mg/kg/injection, schedule: Q01DX Z (ip), vehicle: saline) does the source give for `CN=C(NC)c1ccc(NC(=O)c2cc(C(=O)Nc3ccc(C(=NC)NC)cc3)cc([N+](=O)[O-])c2)cc1` here?
Answer: 0 of 6 and 2 of 6

Question: What about the survivor count (dose: 60.0 mg/kg/injection, schedule: Q01DX Z (ip), vehicle: saline) of the same compound?
Answer: 0 of 6

Question: And the survivor count (dose: 120.0 mg/kg/injection, schedule: Q01DX Z (ip), vehicle: saline)?
Answer: 0 of 6

Question: How did the survivor count (dose: 83.0 mg/kg/injection, schedule: Q01DX Z (ip), vehicle: methylcellulose (MC)) turn out when `C=CCOC(=O)CCl` was run?
Answer: 6 of 6

Question: What about the survivor count (dose: 125.0 mg/kg/injection, schedule: Q01DX Z (ip), vehicle: methylcellulose (MC)) of the same compound?
Answer: 6 of 6

Question: And the survivor count (dose: 400.0 mg/kg/injection, schedule: Q01DX001 (ip), vehicle: saline with Tween-80)?
Answer: 0 of 3

Question: With `CN(CCc1ccccc1)C(N)=S` as the compound, how does the survivor count (dose: 150.0 mg/kg/injection, schedule: Q01DX001 (ip), vehicle: acetone) read?
Answer: 2 of 6

Question: What about the survivor count (dose: 300.0 mg/kg/injection, schedule: Q01DX001 (ip), vehicle: acetone) of the same compound?
Answer: 0 of 6

Question: For `O=c1cc(-c2ccc(Cl)cc2)oc(-c2ccc(Cl)cc2)c1`, which survivor count [1] is on record?
Answer: 6 of 6

Question: And the survivor count (dose: 400.0 mg/kg/injection, schedule: Q04DX003 (ip), vehicle: Klucel (hydroxypropylcellulose) (HPC))?
Answer: 5 of 6

Question: What does the source list for `NCCCN=C=NCc1ccccc1`?
Answer: survivor count [2]: 0 of 6; survivor count [3]: 0 of 6

Question: For `CC(Cc1ccccc1)N1C(=O)C=CC1=O` (stereo not given), which survivor count (dose: 25.0 mg/kg/injection, schedule: Q01DX009 (ip), vehicle: Klucel (hydroxypropylcellulose) (HPC)) is on record?
Answer: 5 of 6

Question: And the survivor count (dose: 50.0 mg/kg/injection, schedule: Q01DX009 (ip), vehicle: Klucel (hydroxypropylcellulose) (HPC))?
Answer: 0 of 6

Question: What about the survivor count (dose: 100.0 mg/kg/injection, schedule: Q01DX009 (ip), vehicle: Klucel (hydroxypropylcellulose) (HPC)) of the same compound?
Answer: 0 of 6

Question: What about the survivor count [1] of the same compound?
Answer: 0 of 6

Question: What about the survivor count (dose: 400.0 mg/kg/injection, schedule: Q01DX009 (ip), vehicle: Klucel (hydroxypropylcellulose) (HPC)) of the same compound?
Answer: 0 of 6

Question: `O=S(=O)(F)c1ccc(Cl)cc1` was tested. Which survivor count [4] did it give?
Answer: 0 of 3

Question: Which survivor count (dose: 20.0 mg/kg/injection, schedule: Q01DX001 (ip), vehicle: water) does the source give for `CC(C)(Cl)CCC1=C(Cl)C(=O)c2ccccc2C1=O` here?
Answer: 1 of 4

Question: And the survivor count (dose: 40.0 mg/kg/injection, schedule: Q01DX001 (ip), vehicle: water)?
Answer: 0 of 4

Question: And the survivor count (dose: 50.0 mg/kg/injection, schedule: Q01DX001 (ip), vehicle: water)?
Answer: 0 of 4

Question: And the survivor count (dose: 80.0 mg/kg/injection, schedule: Q01DX001 (ip), vehicle: water)?
Answer: 0 of 4

Question: What about the survivor count (dose: 100.0 mg/kg/injection, schedule: Q01DX001 (ip), vehicle: water) of the same compound?
Answer: 0 of 4

Question: What about the survivor count (dose: 200.0 mg/kg/injection, schedule: Q01DX001 (ip), vehicle: water) of the same compound?
Answer: 0 of 4

Question: And the survivor count (dose: 400.0 mg/kg/injection, schedule: Q01DX001 (ip), vehicle: water)?
Answer: 0 of 4

Question: Which survivor count [4] does the source give for `COc1ccc(CCC2=NCCN2)cc1OC` here?
Answer: 2 of 6

Question: For `OCCCCCCCC[n+]1ccccc1`, which survivor count (dose: 50.0 mg/kg/injection, schedule: Q01DX001 (ip), vehicle: saline) is on record?
Answer: 0 of 6

Question: And the survivor count (dose: 100.0 mg/kg/injection, schedule: Q01DX001 (ip), vehicle: saline)?
Answer: 0 of 6

Question: What about the survivor count [2] of the same compound?
Answer: 0 of 6

Question: Which results are given for `Nc1nc2c(ncn2C2CC(CO)C(O)C2O)c(=O)[nH]1` (stereo not given)?
Answer: survivor count (dose: 19.0 mg/kg/injection, schedule: Q01DX009 (ip), vehicle: other): 5 of 6; survivor count (dose: 38.0 mg/kg/injection, schedule: Q01DX009 (ip), vehicle: other): 4 of 5; survivor count (dose: 75.0 mg/kg/injection, schedule: Q04DX003 (ip), vehicle: other): 6 of 6; survivor count (dose: 150.0 mg/kg/injection, schedule: Q01DX001 (ip), vehicle: other): 6 of 6; survivor count (dose: 300.0 mg/kg/injection, schedule: Q01DX001 (ip), vehicle: other): 1 of 6

Question: With `O=C1OC(/C=C/c2ccccc2)=NC/1=C\c1cccc([N+](=O)[O-])c1` as the compound, how does the survivor count (dose: 100.0 mg/kg/injection, schedule: Q04DX002 (ip), vehicle: Klucel (hydroxypropylcellulose) (HPC)) read?
Answer: 3 of 3

Question: And the survivor count (dose: 200.0 mg/kg/injection, schedule: Q04DX002 (ip), vehicle: Klucel (hydroxypropylcellulose) (HPC))?
Answer: 3 of 3

Question: What about the survivor count (dose: 400.0 mg/kg/injection, schedule: Q04DX002 (ip), vehicle: Klucel (hydroxypropylcellulose) (HPC)) of the same compound?
Answer: 3 of 3

Question: With `COB(OC)C1CCCC1` as the compound, how does the survivor count (dose: 400.0 mg/kg/injection, schedule: Q01DX001 (ip), vehicle: Klucel (hydroxypropylcellulose) (HPC)) read?
Answer: 0 of 6

Question: Which survivor count [4] does the source give for `O=C(COc1ccccc1)CC(O)(C(F)(F)F)C(F)(F)F` here?
Answer: 6 of 6

Question: How did the T/C (dose: 52.0 mg/kg/injection, schedule: Q01DX011 (ip)) turn out when `S=P(NCCSCc1ccccc1)(N1CC1)N1CC1` was run?
Answer: 130 % of control [5 of 6 alive]

Question: What about the T/C (dose: 100.0 mg/kg/injection, schedule: Q01DX015 (ip)) of the same compound?
Answer: 128 % of control

Question: For `CC(C)(C)c1ccc(P(=O)(O)C(C)(C)C)cc1`, which survivor count [5] is on record?
Answer: 1 of 6

Question: `CC[NH-].CC[NH-].[Br][Pt+2][Br]` was tested. Which survivor count (dose: 400.0 mg/kg/injection, schedule: Q04DX003 (ip), vehicle: other) did it give?
Answer: 5 of 6

Question: What does the source list for `CC1=Nc2ccccc2N=C(C)C1`?
Answer: survivor count [3]: 0 of 4; survivor count [4]: 1 of 6

Question: How did the survivor count (dose: 20.0 mg/kg/injection, schedule: Q04DX003 (ip), vehicle: saline) turn out when `NC(=O)C(O)(C(F)(F)F)C(F)(F)F` was run?
Answer: 6 of 6

Question: And the survivor count (dose: 40.0 mg/kg/injection, schedule: Q01DX001 (ip), vehicle: saline)?
Answer: 0 of 6

Question: And the survivor count (dose: 75.0 mg/kg/injection, schedule: Q01DX001 (ip), vehicle: saline)?
Answer: 0 of 6

Question: What about the survivor count [6] of the same compound?
Answer: 0 of 6

Question: And the survivor count [5]?
Answer: 0 of 6

Question: What does the source list for `O=C(NNCN1C(=O)c2ccccc2C1=O)c1ccccc1`?
Answer: survivor count (dose: 100.0 mg/kg/injection, schedule: Q01DX009 (ip), vehicle: saline with Tween-80): 5 of 6; survivor count [7]: 6 of 6

Question: `C=CCSC1=NC(=O)C(CCCC)C(=O)N1C` (stereo not given) was tested. Which survivor count [6] did it give?
Answer: 0 of 6

Question: And the survivor count [5]?
Answer: 0 of 6

Question: How did the survivor count (dose: 200.0 mg/kg/injection, schedule: Q01DX009 (ip), vehicle: saline with Tween-80) turn out when `C=CCNC(=O)Oc1cccc(NC(=O)/C=C/C)c1` was run?
Answer: 6 of 6

Question: What about the survivor count [7] of the same compound?
Answer: 5 of 6

Question: With `COC(=O)C1Cc2c([nH]c3ccccc23)CN1` (stereo not given) as the compound, how does the survivor count (dose: 75.0 mg/kg/injection, schedule: Q04DX003 (ip), vehicle: saline) read?
Answer: 3 of 6

Question: And the survivor count (dose: 150.0 mg/kg/injection, schedule: Q04DX003 (ip), vehicle: saline)?
Answer: 1 of 6

Question: What about the survivor count (dose: 300.0 mg/kg/injection, schedule: Q04DX003 (ip), vehicle: saline) of the same compound?
Answer: 1 of 6

Question: For `CC[N+](C)(CC)c1ccccc1`, which survivor count (dose: 100.0 mg/kg/injection, schedule: Q04DX002 (ip), vehicle: saline) is on record?
Answer: 0 of 3

Question: What about the survivor count (dose: 200.0 mg/kg/injection, schedule: Q04DX002 (ip), vehicle: saline) of the same compound?
Answer: 0 of 3

Question: What about the survivor count (dose: 400.0 mg/kg/injection, schedule: Q04DX002 (ip), vehicle: saline) of the same compound?
Answer: 0 of 3
